Experimental data published in PubChem BioAssay AID493014 (National Center for Advancing Translational Sciences (NCATS), 2011).
This is one part of the list. The main result of the screen is listed elsewhere. These columns were measured beside it and carry no call. Compounds called inactive in the main read-out are mostly missing here. The note in brackets gives the kind of curve behind each potency; many fits are weak.

Test: qHTS Assay to Find Inhibitors of Chronic Active B-Cell Receptor Signaling
Settings: ABC-DLBCL IkBa-CBG/CBR reporter, luminescence ratio (green luciferase fused to IkBa over red control in TMD8 lymphoma cells), 4 h
Procedure, shortened: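 TMD8 ABC-DLBCL cells carrying doxycycline-inducible green luciferase fused to IkappaBalpha plus unfused red luciferase were exposed to compounds (up to 46 uM) for 4 hrs at 37C. Activity came from the overlap-corrected green/red luminescence ratio.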

[1] = measured here: CBR red luminescence, cell number
[2] = measured here: IkBa-CBG green luminescence

## CC(=O)C1=C(C)N(Cc2ccccc2)C(=O)N[C@H]1c1cccc(C(F)(F)F)c1
[1]
  AC50: 16.4 µM [falling, partial curve, poor fit]

## O=C(c1cc2cc(Cl)ccc2[nH]1)N1CCN(Cc2ccc3c(c2)OCO3)CC1
[1]
  AC50: 11.2 µM [falling, partial curve]

## CCCOc1ccc(CSc2ncn[nH]2)cc1
[1]
  AC50: 4.11 µM [falling, partial curve, poor fit]

## O=C(CNC(=O)c1cccs1)c1ccc(F)cc1
[1]
  AC50: 14.6 µM [falling, partial curve]

## Cc1ccnc(NC(=O)CSc2cc(=O)n(C)c3ccccc23)c1
[1]
  AC50: 3.16 µM [falling, partial curve]

## Cc1ccc(CNc2oc(C)nc2C#N)cc1
[1]
  AC50: 6.31 µM [rising, partial curve, poor fit]

## CN1CCC(=NNc2ccc(S(=O)(=O)N3CCOCC3)cc2[N+](=O)[O-])CC1
[1]
  AC50: 7.31 µM [falling, partial curve]

## O=C1CCCN1CCCNc1nc2c(S(=O)(=O)c3ccccc3)nnn2c2ccc(Cl)cc12
[1]
  AC50: 2.82 µM [falling, partial curve, poor fit]

## Cc1ccc(-n2c(N)c(-c3nc4ccccc4n3C)sc2=S)cc1
[1]
  AC50: 20.6 µM [falling, single point]

## CC(C(=O)N1CCCCC1)n1sc2ccccc2c1=O (centres undefined)
[1]
  AC50: 5.8 µM [rising, partial curve, poor fit]

## CC(C)c1ccc(OCCCCCN2CCOCC2)cc1
[1]
  AC50: 0.1 µM [rising, full curve, poor fit]

## COC(=O)c1cc(NC(=O)C(C)c2ccc(CC(C)C)cc2)ccc1O (centres undefined)
[1]
  AC50: 11.2 µM [falling, partial curve]

## Cc1ccsc1C(=O)OCC(=O)c1ccc[nH]1
[1]
  AC50: 20.6 µM [falling, partial curve, poor fit]

## COc1ccc(-c2cc3ccc(OCc4nn[nH]n4)cc3oc2=O)cc1
[1]
  AC50: 29.1 µM [rising, partial curve, poor fit]

## Cc1cc(NC(=O)CS(=O)(=O)c2cn(Cc3cccc(F)c3)c3ccccc23)no1
[1]
  AC50: 29.1 µM [falling, single point]

## CCSC1=C(C#N)C2(CCCCC2)C2=C(CC(C)(C)CC2=O)N1
[1]
  AC50: 5.01 µM [rising, partial curve]

## Cc1cc(-c2nnc3n2N=C(c2ccccc2)CS3)n[nH]1
[1]
  AC50: 20 µM [falling, partial curve, poor fit]

## N#Cc1ccccc1S(=O)(=O)N1CCN(C(=O)c2cn(-c3ccccc3)nc2-c2cccnc2)CC1
[1]
  AC50: 7.31 µM [rising, partial curve, poor fit]

## Brc1cccc(-c2cnco2)c1
[1]
  AC50: 3.55 µM [rising, partial curve, poor fit]

## CC1C=CCC2C(=O)N(c3cc(Cl)ccc3O)C(=O)C12 (centres undefined)
[1]
  AC50: 12.6 µM [rising, partial curve, poor fit]

## Nc1sc(-c2ccccc2)cc1C(=O)N/N=C/c1ccc(Cl)cc1
[1]
  AC50: 8.91 µM [rising, partial curve]

## COc1ccc(NC(=O)N(C)C[C@H]2Oc3ccc(NC(=O)NC(C)C)cc3C(=O)N([C@H](C)CO)C[C@@H]2C)cc1
[1]
  AC50: 29.1 µM [rising, single point]

## Cc1cc(C)c2cc(CN(Cc3nnnn3Cc3ccc(F)cc3)C3CCCC3)c(=O)[nH]c2c1
[1]
  AC50: 0.501 µM [falling, full curve, poor fit]

## Cc1cccc(N(C(=O)c2snc(C(N)=O)c2N)C(C(=O)NCC2CCCO2)c2c[nH]c3ccccc23)c1 (centres undefined)
[1]
  AC50: 3.16 µM [falling, partial curve, poor fit]

## Cc1ccc(OCCSc2ncnc3nc[nH]c23)cc1
[1]
  AC50: 6.51 µM [rising, full curve, poor fit]

## C=CCn1c(C)cc(C(=O)CN2NS(=O)(=O)c3ccccc3C2=O)c1C
[1]
  AC50: 17.8 µM [rising, single point]
[2]
  AC50: 25.1 µM [falling, single point]

## COc1cccc(-c2nnc(NC(=O)C(C)C)o2)c1
[1]
  AC50: 29.1 µM [falling, single point]

## Cc1ccc(OCC(=O)Nn2c(C)nc3ccccc3c2=O)c(C(C)C)c1
[1]
  AC50: 11.2 µM [falling, partial curve, poor fit]

## O=C(CSc1nncs1)Nc1nnc(-c2ccccc2)o1
[1]
  AC50: 20 µM [falling, partial curve, poor fit]

## CCN(CC)S(=O)(=O)c1ccc(N2CCN(S(=O)(=O)c3ccc4c(c3)OCCO4)CC2)nc1
[1]
  AC50: 1.84 µM [falling, partial curve, poor fit]

## Cc1ccc(C(=O)C(C)OC(=O)c2cc3cc([N+](=O)[O-])ccc3oc2=O)cc1 (centres undefined)
[1]
  AC50: 6.51 µM [rising, single point]

## C[C@@H]1CN(C(=O)c2nc3ccc(Cl)cn3c2CN2CCc3sccc3C2)C[C@H](C)O1
[1]
  AC50: 0.1 µM [rising, full curve, poor fit]

## CCCS(=O)(=O)c1c(S(=O)(=O)CCC)c2c(N)cccn2c1C(=O)c1ccc(OC)cc1
[1]
  AC50: 17.8 µM [falling, single point]

## CC[C@@H]1Cc2cc(O)ccc2C2=C1c1ccc(O)cc1C[C@H]2CC
[1]
  AC50: 3.66 µM [rising, partial curve, poor fit]
[2]
  AC50: 3.66 µM [falling, partial curve, poor fit]

## Clc1ccc(Nc2ccc(Cl)nn2)cc1
[1]
  AC50: 35.5 µM [rising, single point]

## CCn1c(=O)c(C(=O)Nc2ccccc2)c(O)c2ccccc21
[1]
  AC50: 0.398 µM [falling, full curve, poor fit]

## COc1cc(OC)cc(C(=O)O/N=C(\N)c2ccccn2)c1
[1]
  AC50: 15.8 µM [falling, partial curve]

## COc1cc(C#Cc2c(-c3cncn3C)n(C)c3ccc(-c4ccc(CN5CCOCC5)cc4)cc23)cc(OC)c1
[1]
  AC50: 0.731 µM [rising, full curve, poor fit]

## CSc1ccccc1NC(=O)CSc1n[nH]c(C)c1[N+](=O)[O-]
[1]
  AC50: 12.6 µM [falling, partial curve]

## Cn1c(/C=C/N(Cc2ccccc2)c2ccccc2)c([N+](=O)[O-])c(=O)n(C)c1=O
[1]
  AC50: 20 µM [rising, single point]

## COc1ccccc1NC(=O)CN1CCN(Cc2ccccc2)CC1
[1]
  AC50: 6.51 µM [rising, partial curve, poor fit]

## COc1ccc(OC)c(CN2CCN(C(=O)CNC(=O)c3ccc(C(C)(C)C)cc3)CC2)c1
[1]
  AC50: 6.51 µM [falling, partial curve, poor fit]

## COCCn1c(SCC(=O)N2CCCCC2)nc2ccccc2c1=O
[1]
  AC50: 3.16 µM [falling, partial curve, poor fit]

## O=C(Nc1ccccc1C(=O)N/N=C/c1ccco1)c1ccc(F)cc1
[1]
  AC50: 18.4 µM [falling, partial curve]

## O=C1NC(=S)/C(=C\c2ccc(-c3ccccc3Cl)o2)S1
[1]
  AC50: 0.164 µM [rising, full curve, poor fit]

## COc1ccccc1CNc1ncnc2c1cnn2-c1ccc(C)cc1
[1]
  AC50: 10 µM [falling, partial curve, poor fit]

## CCCn1c(-c2cccc([N+](=O)[O-])c2)nc2c1c(=O)[nH]c(=O)n2Cc1ccccc1
[1]
  AC50: 10.3 µM [rising, partial curve, poor fit]

## CCCC1CC(CSC(=N)N)OC1=O (centres undefined)
[1]
  AC50: 18.4 µM [falling, single point]

## O=C(CCc1nnc2ccc(N3CCCC3)nn12)Nc1ccc(F)cc1F
[1]
  AC50: 6.31 µM [falling, single point]

## Cc1ccc(C)c(C2=NNC(=NCc3ccccc3)SC2)c1
[1]
  AC50: 2.51 µM [falling, partial curve, poor fit]

## CCOc1ccccc1CN1CCNC(=O)C1CC(=O)NCCC1=CCCCC1 (centres undefined)
[1]
  AC50: 25.1 µM [falling, single point]

## OCCN1CCN(C2Cc3cc(Cl)ccc3Sc3ccc(Cl)cc32)CC1 (centres undefined) (tested in a mixture with another compound)
[1]
  AC50: 29.1 µM [falling, single point]

## Cc1sc2nc3c(SC(C)C(=O)O)cc(C(=O)c4ccccc4O)cn3c(=O)c2c1C (centres undefined)
[1]
  AC50: 16.4 µM [falling, partial curve]

## N#CCSc1nc(-c2ccccc2)cs1
[1]
  AC50: 4.61 µM [rising, partial curve, poor fit]

## O=C(COC(=O)c1ccccc1NCc1ccco1)Nc1ccc2c(c1)OCO2
[1]
  AC50: 10 µM [rising, partial curve]

## COc1ccc(/C=C/C(=O)OCC(=O)NC(C)CCc2ccccc2)cc1OC (centres undefined)
[1]
  AC50: 18.4 µM [rising, partial curve, poor fit]

## COC(=O)c1ccc(OC(C)C(=O)c2ccc(C)cc2)cc1 (centres undefined)
[1]
  AC50: 8.2 µM [rising, partial curve, poor fit]

## O=C(c1cc2c(s1)CCCC2)N1CCN(C(=O)C2CCCO2)CC1 (centres undefined)
[1]
  AC50: 8.2 µM [rising, partial curve, poor fit]

## COc1cccc(-c2cc(C(=O)Nc3cc(C)n(Cc4ccc(Cl)cc4)n3)no2)c1
[1]
  AC50: 4.11 µM [falling, full curve, poor fit]

## Nc1ncnc2c1ncn2[C@H]1CC[C@@H](CO)O1
[1]
  AC50: 25.9 µM [rising, single point]

## Cn1cc(Br)c(C(=O)N/N=C/c2cc3c(cc2Cl)OCO3)n1
[1]
  AC50: 2.24 µM [falling, full curve]

## CCOc1ccc(CN2C(=O)c3ccccc3C2=O)cc1C(=O)Nc1nnc(SCC)s1
[1]
  AC50: 6.51 µM [rising, single point]
